Experimental data as given in US12559574B2 (National Health Research Institutes, priority 2019, dated 2026).
At least one structure is not confirmed: it was looked up by name or label, or the drawing left a doubt.

Legend:
A549 cells = test: EMT marker immunoblot in A549 cells; assay type: cell-based, human; conditions: pretreated 1 h, succinate 1 mM 24 h
Method: The cells are lysed, and the cell lysates are immunoblotted with antibodies specific for E-cadherin, N-cadherin, vimentin, or β-actin.
LLC and A549 lung cancer cells are treated with different concentrations of HIF-1α specific inhibitors, and cell migration is assessed in a transwell assay. […] Prolyl hydroxylase (PHD) controls HIF-1α protein stability by hydroxylation of two conserved proline residues in HIF-1α thereby accelerating its degradation. […] Cell lysates are immunoblotted with antibodies specific for E-cadherin, Vimentin, or […]-actin.

HIF-1α = test: kinase phosphorylation and HIF-1α expression in LLC cells; assay type: cell-based, murine; conditions: inhibitor 12 h or 1 h pretreatment then succinate 1 mM 12 h, qPCR

`O=c1cc(N2CCOCC2)oc2c(-c3ccccc3)cccc12` [LY294002, reference compound] was tested, and the “succinate-mediated vimentin augmentation and E-cadherin reduction” value (A549 cells) was “suppresses” and the “constitutive and succinate-induced expression of Hif-1α” value (HIF-1α) was “abrogates”.
